Data on six molecules can be found in the supplement of paper PMC10032668.

The chains behind the UniProt entries cited, without tags or fusion partners.
TPX2, Q9ULW0, UniProt Q9ULW0, whole entry: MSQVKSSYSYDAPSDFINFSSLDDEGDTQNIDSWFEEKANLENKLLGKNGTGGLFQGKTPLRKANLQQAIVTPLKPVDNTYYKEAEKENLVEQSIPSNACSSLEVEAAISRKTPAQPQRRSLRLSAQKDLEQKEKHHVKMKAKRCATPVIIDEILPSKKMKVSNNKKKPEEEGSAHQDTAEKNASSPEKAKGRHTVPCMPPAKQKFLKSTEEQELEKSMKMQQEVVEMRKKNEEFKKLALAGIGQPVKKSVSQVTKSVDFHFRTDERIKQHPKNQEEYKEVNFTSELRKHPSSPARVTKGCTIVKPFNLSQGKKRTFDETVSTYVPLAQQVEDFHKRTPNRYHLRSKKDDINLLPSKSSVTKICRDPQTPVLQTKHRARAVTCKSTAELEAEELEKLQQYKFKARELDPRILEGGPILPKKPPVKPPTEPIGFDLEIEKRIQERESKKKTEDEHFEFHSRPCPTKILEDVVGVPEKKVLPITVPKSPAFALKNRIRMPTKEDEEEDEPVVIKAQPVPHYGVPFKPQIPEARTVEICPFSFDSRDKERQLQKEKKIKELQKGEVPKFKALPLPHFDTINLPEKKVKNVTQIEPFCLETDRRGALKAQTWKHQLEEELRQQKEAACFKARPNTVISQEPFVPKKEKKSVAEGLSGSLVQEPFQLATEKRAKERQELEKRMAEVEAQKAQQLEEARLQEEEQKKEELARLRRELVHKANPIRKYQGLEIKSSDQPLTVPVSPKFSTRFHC
GTF2F1, P35269, UniProt P35269, whole entry: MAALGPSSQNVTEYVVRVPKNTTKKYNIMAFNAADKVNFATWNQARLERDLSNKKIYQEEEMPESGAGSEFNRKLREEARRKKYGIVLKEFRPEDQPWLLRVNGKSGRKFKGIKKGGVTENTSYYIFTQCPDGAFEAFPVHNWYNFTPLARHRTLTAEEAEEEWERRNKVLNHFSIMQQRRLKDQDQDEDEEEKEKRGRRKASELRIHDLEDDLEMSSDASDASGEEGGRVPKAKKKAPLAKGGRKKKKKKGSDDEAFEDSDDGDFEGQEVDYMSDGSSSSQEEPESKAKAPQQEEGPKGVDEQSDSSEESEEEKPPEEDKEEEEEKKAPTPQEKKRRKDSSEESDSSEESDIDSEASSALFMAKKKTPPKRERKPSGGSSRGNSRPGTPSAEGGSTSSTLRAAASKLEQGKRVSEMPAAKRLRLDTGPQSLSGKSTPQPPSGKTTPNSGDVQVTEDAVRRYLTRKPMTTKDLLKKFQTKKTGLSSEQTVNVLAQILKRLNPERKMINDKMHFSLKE
NDUFA10, O95299, UniProt O95299, whole entry: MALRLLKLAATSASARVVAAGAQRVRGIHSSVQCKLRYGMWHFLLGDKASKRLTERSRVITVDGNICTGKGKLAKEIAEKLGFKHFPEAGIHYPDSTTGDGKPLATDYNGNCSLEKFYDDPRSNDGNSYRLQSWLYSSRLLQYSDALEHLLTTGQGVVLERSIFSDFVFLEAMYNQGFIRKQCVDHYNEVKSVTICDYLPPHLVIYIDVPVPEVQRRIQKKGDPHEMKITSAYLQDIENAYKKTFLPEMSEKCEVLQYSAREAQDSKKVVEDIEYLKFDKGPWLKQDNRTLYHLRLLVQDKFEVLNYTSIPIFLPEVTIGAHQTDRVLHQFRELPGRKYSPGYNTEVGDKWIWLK
LARP4B, Q92615, UniProt Q92615, whole entry: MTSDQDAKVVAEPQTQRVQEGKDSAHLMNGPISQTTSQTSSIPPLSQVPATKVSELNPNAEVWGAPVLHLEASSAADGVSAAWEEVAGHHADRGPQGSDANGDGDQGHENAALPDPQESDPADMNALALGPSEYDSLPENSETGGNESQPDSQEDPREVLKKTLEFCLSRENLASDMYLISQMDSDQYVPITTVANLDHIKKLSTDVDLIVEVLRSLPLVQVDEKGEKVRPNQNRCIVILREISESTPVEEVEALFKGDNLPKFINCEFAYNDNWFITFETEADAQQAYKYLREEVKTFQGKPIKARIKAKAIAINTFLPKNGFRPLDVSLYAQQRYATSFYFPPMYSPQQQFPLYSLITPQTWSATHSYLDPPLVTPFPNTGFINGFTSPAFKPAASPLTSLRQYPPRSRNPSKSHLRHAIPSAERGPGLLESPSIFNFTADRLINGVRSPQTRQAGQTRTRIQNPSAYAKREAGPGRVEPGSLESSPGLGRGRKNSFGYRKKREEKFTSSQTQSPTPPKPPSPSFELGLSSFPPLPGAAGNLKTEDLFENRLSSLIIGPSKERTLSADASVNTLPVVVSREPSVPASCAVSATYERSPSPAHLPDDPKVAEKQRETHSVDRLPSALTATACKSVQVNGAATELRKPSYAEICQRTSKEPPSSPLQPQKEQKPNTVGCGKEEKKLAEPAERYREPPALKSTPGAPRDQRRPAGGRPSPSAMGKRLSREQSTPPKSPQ
SNRPG, P62308, UniProt P62308, whole entry: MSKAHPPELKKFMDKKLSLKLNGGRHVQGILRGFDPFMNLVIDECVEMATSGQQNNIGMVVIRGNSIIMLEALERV
ANAPC1, Q9H1A4, UniProt Q9H1A4, whole entry: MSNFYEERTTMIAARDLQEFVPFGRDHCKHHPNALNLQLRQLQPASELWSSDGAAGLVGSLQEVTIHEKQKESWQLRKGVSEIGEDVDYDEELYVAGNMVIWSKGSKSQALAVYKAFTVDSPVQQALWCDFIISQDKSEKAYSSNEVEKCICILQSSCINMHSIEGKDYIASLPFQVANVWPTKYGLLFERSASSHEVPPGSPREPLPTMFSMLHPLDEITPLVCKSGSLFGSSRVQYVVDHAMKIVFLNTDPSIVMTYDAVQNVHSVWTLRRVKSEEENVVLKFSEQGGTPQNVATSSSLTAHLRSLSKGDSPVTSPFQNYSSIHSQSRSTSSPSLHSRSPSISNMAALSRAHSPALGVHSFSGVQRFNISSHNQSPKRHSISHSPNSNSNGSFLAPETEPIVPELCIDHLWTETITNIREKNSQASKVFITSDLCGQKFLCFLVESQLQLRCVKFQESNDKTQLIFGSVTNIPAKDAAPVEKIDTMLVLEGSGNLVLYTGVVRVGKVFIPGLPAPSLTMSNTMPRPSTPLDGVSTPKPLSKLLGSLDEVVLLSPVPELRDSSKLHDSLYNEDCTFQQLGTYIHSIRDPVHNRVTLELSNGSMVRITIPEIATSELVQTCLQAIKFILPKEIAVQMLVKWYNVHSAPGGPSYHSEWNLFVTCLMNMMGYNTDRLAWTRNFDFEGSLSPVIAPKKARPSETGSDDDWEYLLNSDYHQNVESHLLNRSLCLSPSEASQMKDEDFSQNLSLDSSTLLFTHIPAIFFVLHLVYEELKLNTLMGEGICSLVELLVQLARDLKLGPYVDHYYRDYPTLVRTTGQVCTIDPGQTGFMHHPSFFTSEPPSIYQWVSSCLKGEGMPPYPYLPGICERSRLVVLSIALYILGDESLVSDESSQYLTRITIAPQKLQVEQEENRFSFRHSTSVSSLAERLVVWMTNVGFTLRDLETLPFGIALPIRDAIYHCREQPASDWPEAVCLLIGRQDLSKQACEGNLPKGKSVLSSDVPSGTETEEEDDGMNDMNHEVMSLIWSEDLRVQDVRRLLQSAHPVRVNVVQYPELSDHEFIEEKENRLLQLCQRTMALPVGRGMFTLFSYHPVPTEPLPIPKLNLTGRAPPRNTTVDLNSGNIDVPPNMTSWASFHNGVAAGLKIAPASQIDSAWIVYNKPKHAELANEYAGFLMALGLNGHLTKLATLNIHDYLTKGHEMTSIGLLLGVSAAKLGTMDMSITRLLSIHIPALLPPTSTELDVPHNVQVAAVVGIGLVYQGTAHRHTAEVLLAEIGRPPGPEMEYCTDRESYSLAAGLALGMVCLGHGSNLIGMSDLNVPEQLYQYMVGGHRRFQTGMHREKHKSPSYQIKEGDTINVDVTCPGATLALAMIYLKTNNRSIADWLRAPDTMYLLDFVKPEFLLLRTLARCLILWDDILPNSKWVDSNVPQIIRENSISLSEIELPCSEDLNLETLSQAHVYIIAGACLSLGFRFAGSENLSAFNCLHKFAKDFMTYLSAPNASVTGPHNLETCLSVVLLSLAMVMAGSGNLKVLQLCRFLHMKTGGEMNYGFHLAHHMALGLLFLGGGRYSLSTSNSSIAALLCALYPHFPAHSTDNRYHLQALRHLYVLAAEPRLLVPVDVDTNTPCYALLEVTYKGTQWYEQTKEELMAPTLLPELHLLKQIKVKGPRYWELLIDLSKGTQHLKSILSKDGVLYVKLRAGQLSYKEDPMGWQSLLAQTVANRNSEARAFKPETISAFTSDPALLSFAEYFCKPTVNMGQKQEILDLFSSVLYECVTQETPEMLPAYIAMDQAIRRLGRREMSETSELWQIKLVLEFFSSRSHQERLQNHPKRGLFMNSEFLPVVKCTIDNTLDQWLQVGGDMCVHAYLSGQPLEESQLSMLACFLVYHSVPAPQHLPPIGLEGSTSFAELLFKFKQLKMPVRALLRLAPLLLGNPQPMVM
NDUFA6, P56556, UniProt P56556, whole entry: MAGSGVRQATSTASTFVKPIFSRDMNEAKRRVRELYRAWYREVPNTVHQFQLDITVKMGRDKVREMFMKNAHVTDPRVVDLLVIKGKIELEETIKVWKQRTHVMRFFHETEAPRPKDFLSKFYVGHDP
SMC2, O95347, UniProt O95347, whole entry: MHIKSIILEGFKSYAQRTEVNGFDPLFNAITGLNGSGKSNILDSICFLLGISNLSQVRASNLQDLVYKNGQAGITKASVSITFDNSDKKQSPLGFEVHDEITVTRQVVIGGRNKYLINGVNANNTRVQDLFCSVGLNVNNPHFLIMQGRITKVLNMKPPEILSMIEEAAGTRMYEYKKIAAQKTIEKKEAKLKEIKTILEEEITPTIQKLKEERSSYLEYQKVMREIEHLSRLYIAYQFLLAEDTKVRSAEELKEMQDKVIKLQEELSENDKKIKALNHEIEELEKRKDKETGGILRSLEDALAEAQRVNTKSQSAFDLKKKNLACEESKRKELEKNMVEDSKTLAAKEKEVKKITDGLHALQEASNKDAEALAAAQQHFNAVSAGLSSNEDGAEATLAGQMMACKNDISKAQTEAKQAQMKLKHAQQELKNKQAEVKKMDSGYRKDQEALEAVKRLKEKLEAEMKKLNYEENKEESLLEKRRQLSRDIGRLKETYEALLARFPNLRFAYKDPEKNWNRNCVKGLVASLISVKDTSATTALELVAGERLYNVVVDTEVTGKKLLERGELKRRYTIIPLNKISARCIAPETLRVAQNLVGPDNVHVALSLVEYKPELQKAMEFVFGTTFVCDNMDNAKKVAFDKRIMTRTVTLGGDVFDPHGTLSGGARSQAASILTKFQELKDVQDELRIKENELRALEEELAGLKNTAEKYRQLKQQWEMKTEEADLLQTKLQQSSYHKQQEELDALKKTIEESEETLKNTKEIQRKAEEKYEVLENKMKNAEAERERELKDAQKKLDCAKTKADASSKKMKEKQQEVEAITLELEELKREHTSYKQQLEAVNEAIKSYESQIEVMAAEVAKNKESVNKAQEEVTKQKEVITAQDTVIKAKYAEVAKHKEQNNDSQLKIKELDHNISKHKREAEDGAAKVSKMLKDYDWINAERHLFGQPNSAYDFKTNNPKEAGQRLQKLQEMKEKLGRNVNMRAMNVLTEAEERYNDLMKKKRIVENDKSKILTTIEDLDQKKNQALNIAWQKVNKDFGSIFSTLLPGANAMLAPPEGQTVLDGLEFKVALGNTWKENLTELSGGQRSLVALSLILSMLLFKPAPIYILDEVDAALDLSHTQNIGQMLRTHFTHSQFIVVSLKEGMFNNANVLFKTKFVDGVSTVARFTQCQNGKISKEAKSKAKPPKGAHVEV
TARDBP, Q13148, UniProt Q13148, whole entry: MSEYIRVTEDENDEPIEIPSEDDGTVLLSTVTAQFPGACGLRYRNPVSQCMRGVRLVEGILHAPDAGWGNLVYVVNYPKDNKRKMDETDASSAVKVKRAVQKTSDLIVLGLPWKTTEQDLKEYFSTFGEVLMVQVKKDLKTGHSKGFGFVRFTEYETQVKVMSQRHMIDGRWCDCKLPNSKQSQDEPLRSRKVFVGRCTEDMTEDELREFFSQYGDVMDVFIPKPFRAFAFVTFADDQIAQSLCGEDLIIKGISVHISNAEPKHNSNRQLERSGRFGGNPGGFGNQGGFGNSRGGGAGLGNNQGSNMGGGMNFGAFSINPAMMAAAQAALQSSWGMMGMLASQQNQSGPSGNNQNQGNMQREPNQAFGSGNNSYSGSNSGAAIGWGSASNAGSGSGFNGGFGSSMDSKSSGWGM

The list shows a part of the results. The list holds hits alone, and they repeat only in part.

Holding throughout (assay): PRISMA enrichment of interactor (LFQ) in peptide spot vs all other peptide spots (log2 fold change); higher = stronger / more specific binding of the interactor to the peptide
One test has as its target ANKRD28, O15084. As to the method:
(§1)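 PRISMA: 15-aa overlapping tiles (offset 8 aa) of 60 microproteins, plus SOS1/GLUT1 control peptides, were spot-synthesized on cellulose membranes in triplicate. Membranes were incubated with benzonase-treated HEK293T lysate, and bound proteins were identified by LC-MS/MS with LFQ. Enrichment is the log2 fold change of each protein in one spot versus all other spots. Only interactors passing the significance cutoff are listed.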

The target of another test is CUL4B, Q13620. How it is done: as §1
For another test, the target named is PSMD2, Q13200. How it is done:
as §1

The target of the next test is SCAF11, Q99590. How it is done:
as §1

A further test has as its target TPX2, Q9ULW0. As to the method: as §1
A further test concerns the target ANP32A, P39687. How it is done:
as §1

The target of another test is ANP32B, Q92688. How it is done: as §1
The next test addresses EIF1AD, Q8N9N8. How it is done:
as §1

The next test addresses MMS19, Q96T76. How it is done: as §1
The next test deals with NUCKS1, Q9H1E3. How it is done: as §1
A further test has as its target PTGES3, Q15185. How it is done: as §1
A further test has as its target TRRAP, Q9Y4A5. How it is done:
as §1

A further test addresses ANKHD1, Q8IWZ3. As to the method:
as §1

For a further test, the target named is ATXN2, Q99700. How it is done: as §1
A further test deals with CPSF2, Q9P2I0. How it is done: as §1
The next test has as its target CSNK2A1, P68400. How it is done: as §1
The next test has as its target GTF2F1, P35269. How it is done:
as §1

Another test addresses MAGT1, Q9H0U3. How it is done:
as §1

The target of a further test is MRPL43, Q8N983. As to the method: as §1
The next test addresses MRPS5, P82675. As to the method:
as §1

The target of another test is NCLN, Q969V3. As to the method:
as §1

The target of the next test is NDUFA10, O95299. How it is done: as §1
The next test concerns the target NUP188, Q5SRE5. How it is done:
as §1

For another test, the target named is OLA1, Q9NTK5. How it is done: as §1
For another test, the target named is SSNA1, O43805. As to the method:
as §1

The next test addresses STK26, Q9P289. How it is done:
as §1

For another test, the target named is TCEA1, P23193. As to the method: as §1
The target of a further test is WDR5, P61964. As to the method:
as §1

A further test addresses AP1B1, Q10567. As to the method: as §1
The next test concerns the target GEMIN2, O14893. As to the method:
as §1

Another test concerns the target ITCH, Q96J02. How it is done:
as §1

The target in another test is LARP4B, Q92615. As to the method:
as §1

The next test concerns the target LAS1L, Q9Y4W2. How it is done: as §1
The target in a further test is PSIP1, O75475. How it is done:
as §1

The target in another test is SDHB, P21912. How it is done:
as §1

The target in a further test is SNF8, Q96H20. How it is done: as §1
In another test the target is SNRPG, P62308. As to the method:
as §1

The target in a further test is UBTF, P17480. How it is done:
as §1

In a further test the target is ANAPC1, Q9H1A4. How it is done: as §1
The target in another test is ARHGEF2, Q92974. How it is done: as §1
A further test concerns the target AUP1, Q9Y679. How it is done:
as §1

Another test deals with BAZ1B, Q9UIG0. How it is done:
as §1

Another test addresses C7orf50, Q9BRJ6. How it is done: as §1
In the next test the target is CD2AP, Q9Y5K6. As to the method:
as §1

The target in another test is CIAO1, O76071. How it is done: as §1
The target of a further test is CLUH, O75153. How it is done:
as §1

A further test has as its target DPM1, O60762. As to the method: as §1
Another test has as its target EDF1, O60869. As to the method:
as §1

Another test deals with GLRX3, O76003. As to the method: as §1
For a further test, the target named is HP, P00738. As to the method:
as §1

For a further test, the target named is IRS4, O14654. As to the method:
as §1

Another test has as its target MCRIP2, Q9BUT9. As to the method:
as §1

The target in the next test is MLLT11, Q13015. How it is done: as §1
For another test, the target named is NDUFA6, P56556. As to the method: as §1
For a further test, the target named is NUFIP2, Q7Z417. As to the method:
as §1

Another test addresses PICALM, Q13492. How it is done: as §1
Another test addresses PYCR3, Q53H96. How it is done:
as §1

Another test has as its target PYM1, Q9BRP8. How it is done:
as §1

A further test concerns the target RACGAP1, Q9H0H5. How it is done: as §1
In another test the target is RBIS, Q8N0T1. How it is done: as §1
The target in another test is RGS10, O43665. How it is done: as §1
Another test deals with SMC2, O95347. How it is done:
as §1

Substrate in test [1]: SSB, P05455
As to the method:
as §1

The next test addresses SUGT1, Q9Y2Z0. As to the method:
as §1

The next test addresses TARDBP, Q13148. As to the method:
as §1

The next test concerns the target TIMM44, O43615. How it is done:
as §1

The next test concerns the target YWHAH, Q04917. How it is done: as §1
The target of the next test is ZNF616, Q08AN1. As to the method:
as §1

A further test deals with ANKRD17, O75179. As to the method:
as §1

Another test concerns the target ATP5F1D, P30049. How it is done:
as §1

Another test concerns the target CHERP, Q8IWX8. As to the method:
as §1

For a further test, the target named is DEF8, Q6ZN54. As to the method: as §1
The next test addresses ESYT1, Q9BSJ8. As to the method: as §1
The target of a further test is HADHB, P55084. As to the method: as §1
For the next test, the target named is HSD17B4, P51659. As to the method:
as §1

Another test deals with MT-ATP6, P00846. How it is done:
as §1

Another test deals with PDCL3, Q9H2J4. As to the method: as §1
The target of the next test is RBM38, Q9H0Z9. How it is done:
as §1

A further test has as its target RPS6KA3, P51812. As to the method: as §1
The target in another test is SURF4, O15260. As to the method: as §1
In the next test the target is TARBP1, Q13395. How it is done:
as §1

The target of the next test is UBE3C, Q15386. How it is done:
as §1

With SVCGQRLSELVLPQS [NAV2-AS2_2], the “PRISMA enrichment of interactor (log2)” value stood at 4.17 with ANKRD28, O15084; 9.73 with CUL4B, Q13620; 8.41 in the test with PSMD2, Q13200; 4.69 in the test with SCAF11, Q99590; 6.14 with TPX2, Q9ULW0.

As for RPPHRRTSKKCSSIG [IFRD1], the “PRISMA enrichment of interactor (log2)” value with ANP32A, P39687 worked out at 5.95; in the test with ANP32B, Q92688, 6.18; in the test with EIF1AD, Q8N9N8, 4.41; with MMS19, Q96T76, 4.7; with NUCKS1, Q9H1E3, 5.04; in the test with PTGES3, Q15185, 5.09. For the same molecule, the “PRISMA enrichment of interactor (log2)” value with TRRAP, Q9Y4A5 was determined as 5.68.

As for ATWTGIQRILQVQLH [TBX5-AS1], the “PRISMA enrichment of interactor (log2)” value is 4.81 with ANKHD1, Q8IWZ3; 5.37 in the test with ATXN2, Q99700; 4.11 with CPSF2, Q9P2I0; 5.3 with CSNK2A1, P68400; 4.2 with GTF2F1, P35269; 4.59 with MAGT1, Q9H0U3. The “PRISMA enrichment of interactor (log2)” value with MRPL43, Q8N983 turned out to be 5.11; with MRPS5, P82675 it was 5.76; with NCLN, Q969V3, 5.73; with NDUFA10, O95299, 4.15; with NUP188, Q5SRE5 it was 5.92; in the test with OLA1, Q9NTK5, 4.66. The “PRISMA enrichment of interactor (log2)” value in the test with SSNA1, O43805 is 5.67; with STK26, Q9P289, 5.15; with TCEA1, P23193 it was 4.01; with WDR5, P61964 it was 7.08.

Take PGLAMEKAEPASQWV [RP11-432J24.5_2]: the “PRISMA enrichment of interactor (log2)” value turned out to be 5.84 with ANKHD1, Q8IWZ3; 4.96 with AP1B1, Q10567; 4.29 in the test with GEMIN2, O14893; 7.11 with ITCH, Q96J02; 5.37 with LARP4B, Q92615; 4.68 with LAS1L, Q9Y4W2. Moreover, the “PRISMA enrichment of interactor (log2)” value with PSIP1, O75475 was found to be 4.95; with SDHB, P21912, 5.93; with SNF8, Q96H20, 4.68; with SNRPG, P62308 it was 7.71; with UBTF, P17480, 5.34.

For RATAASPSTDFPRRT [THAP7], the “PRISMA enrichment of interactor (log2)” value stood at 6.02 with ANAPC1, Q9H1A4; 5.62 in the test with ARHGEF2, Q92974; 6.06 with AUP1, Q9Y679; 5.96 in the test with BAZ1B, Q9UIG0; 5.16 in the test with C7orf50, Q9BRJ6; 4.95 with CD2AP, Q9Y5K6. The “PRISMA enrichment of interactor (log2)” value with CIAO1, O76071 came out at 4; in the test with CLUH, O75153, 3.73; with DPM1, O60762, 4.61; with EDF1, O60869, 5.2; with GLRX3, O76003 it was 5.16; in the test with HP, P00738 it was 5.07. Further, the “PRISMA enrichment of interactor (log2)” value amounted to 5.83 with IRS4, O14654; 5.61 with MCRIP2, Q9BUT9; 10.1 with MLLT11, Q13015; 6.05 with NDUFA6, P56556; 7.16 in the test with NUFIP2, Q7Z417; 6.24 with PICALM, Q13492. Moreover, the “PRISMA enrichment of interactor (log2)” value with PYCR3, Q53H96 worked out at 6; in the test with PYM1, Q9BRP8, 3.94; with RACGAP1, Q9H0H5 it was 5.55; in the test with RBIS, Q8N0T1 it was 7.41; with RGS10, O43665, 3.71; with SMC2, O95347, 5.33. Also, the “PRISMA enrichment of interactor (log2)” value in test [1] is 5.22; with SUGT1, Q9Y2Z0, 5.14; in the test with TARDBP, Q13148, 7.18; in the test with TIMM44, O43615, 3.97; with YWHAH, Q04917, 7.75; in the test with ZNF616, Q08AN1, 7.7.

As for AVLSLYRALLRQGRQ [MIEF-MP], the “PRISMA enrichment of interactor (log2)” value with ANKRD17, O75179 came to 5.76; with ARHGEF2, Q92974, 5.17; with ATP5F1D, P30049 it was 5.3; with CHERP, Q8IWX8, 7.26; in the test with DEF8, Q6ZN54, 4.86; with ESYT1, Q9BSJ8, 6.6. Also, the “PRISMA enrichment of interactor (log2)” value amounted to 7.28 in the test with HADHB, P55084; 4.16 in the test with HSD17B4, P51659; 4.48 with MT-ATP6, P00846; 7.67 with PDCL3, Q9H2J4; 8.33 in the test with RBM38, Q9H0Z9; 4.16 in the test with RPS6KA3, P51812. Also, the “PRISMA enrichment of interactor (log2)” value is 4.71 in the test with SURF4, O15260; 4.38 in the test with TARBP1, Q13395; 4.73 with UBE3C, Q15386.
